Measured values as given in publication PMC7819943, “Rice protein-binding microarrays: a tool to detect cis-acting elements near promoter regions in rice”.
The list shows a part of the results.

These sequences were tested against T1, OsSMF1 (Oryza sativa, UniProt Q6ZLB0 1-436) (assay: protein-binding microarray (RPBM); PBS, 2% BSA, 51.3 ng/ul salmon testes DNA, 50 uM zinc acetate, 200 nM TF, 25 C, 1 h; high values mean tight binding). Details: protein: recombinant; tags: N-terminal polyhistidine and DsRed monomer fusion (pET32a); chain copies: 2; label: CyDye5-dUTP incorporated in the synthesized complementary strand; 3' TTTTT single-stranded linker to array surface; dsDNA, one strand shown.
T1 sequence: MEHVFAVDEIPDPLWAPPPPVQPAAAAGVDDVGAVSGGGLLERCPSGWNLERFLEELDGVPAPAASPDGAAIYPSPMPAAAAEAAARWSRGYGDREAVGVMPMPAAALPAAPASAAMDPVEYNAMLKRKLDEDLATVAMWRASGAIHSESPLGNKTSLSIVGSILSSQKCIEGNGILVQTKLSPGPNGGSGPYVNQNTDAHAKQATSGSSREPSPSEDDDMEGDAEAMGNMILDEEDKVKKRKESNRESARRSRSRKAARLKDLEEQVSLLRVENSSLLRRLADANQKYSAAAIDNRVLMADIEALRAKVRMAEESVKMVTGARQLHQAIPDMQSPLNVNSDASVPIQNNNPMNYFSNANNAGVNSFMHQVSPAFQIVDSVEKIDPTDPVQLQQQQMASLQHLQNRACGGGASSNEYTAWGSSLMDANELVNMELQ
In short: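 An Axon 4000B scanner gave the binding signal as per-feature fluorescence intensity in arbitrary units. This followed washing of a custom Agilent array that had been incubated for 1 h at 25 °C with 200 nM protein in PBS, 2% BSA, salmon testes DNA and 50 µM zinc acetate. The proteins were transcription factors fused at the N-terminus to polyhistidine and DsRed, expressed in E. coli BL21-CodonPlus and purified on Ni–NTA.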

| Sequence | binding signal |
| --- | --- |
| CGCATTGTACTAATTAATGACAGGAATGAGGATTATTATGCGGAGTCACCTAGTGCAG | 14800 fluorescence intensity (a.u.) |
| GATAACCTTGTGACTTGTTTTGACGTGTGACGTTGGCGGACGGAGTCACCTAGTGCAG | 11200 fluorescence intensity (a.u.) |
| CGCTCCCAGTCAGCGTGCCACGTCAGACGGTCAATGTGCCCGGAGTCACCTAGTGCAG | 33800 fluorescence intensity (a.u.) |
| ACACACACACACACACACACACACACACACACACACACACCGGAGTCACCTAGTGCAG | 5250 ± 404 fluorescence intensity (a.u.) |
| ACAGCAATGTCAGACATAAACTTATTCCATCTTGCACTTTCGGAGTCACCTAGTGCAG | 3410 fluorescence intensity (a.u.) |
| CGCCGTGACAATTCCCGCTGTATCATCCGTTGTTCGGATCCGGAGTCACCTAGTGCAG | 3200 fluorescence intensity (a.u.) |
| TAAGTGGACCTATAGGTGCACACGTGGGGAGAGGGGCGTGCGGAGTCACCTAGTGCAG | 5690 fluorescence intensity (a.u.) |
| GCCGAGACCAAGGCCGCTCTCCACGTCGATTCTCCAGTGTCGGAGTCACCTAGTGCAG | 5640 fluorescence intensity (a.u.) |
| ACCCAGATCGTCTAGCCCACCACCTTATGGAGTTAGTCGGCGGAGTCACCTAGTGCAG | 6100 fluorescence intensity (a.u.) |
| CCCCACAGCCCCACTCGGGACCAAACACACCACACCCCGCCGGAGTCACCTAGTGCAG | 3180 fluorescence intensity (a.u.) |
| TGTCACCGTCGTCGACGTCAGCTACAACTGCCTCTCCGGCCGGAGTCACCTAGTGCAG | 7220 fluorescence intensity (a.u.) |
| AAAGCACACACACTCTCTCTTAAGCGTCACTTCAGAGGTTCGGAGTCACCTAGTGCAG | 4930 fluorescence intensity (a.u.) |
| CTCCCACCCACTCACCGTTTCCACCCGAATCATTCCGTCCCGGAGTCACCTAGTGCAG | 8610 fluorescence intensity (a.u.) |
| ACTTCTCCTTGAGCCAGAATGACACATTAACACTGTCAACCGGAGTCACCTAGTGCAG | 3720 fluorescence intensity (a.u.) |
| CTACGGAATGTCAGTCAGCTCTGATATGTCGATTGTAGTGCGGAGTCACCTAGTGCAG | 3690 fluorescence intensity (a.u.) |
| GAGCGGTGGTGACAGTGCGTGGAACGACAGCTAGTGGTTGCGGAGTCACCTAGTGCAG | 4260 fluorescence intensity (a.u.) |
| TTATTAAGCCTAATTAATCCATCATTAGTAAATATTTACTCGGAGTCACCTAGTGCAG | 3780 fluorescence intensity (a.u.) |
| CATGACATCGTCATTGACCGTGTCATCGTCAAGATGGATGCGGAGTCACCTAGTGCAG | 8800 fluorescence intensity (a.u.) |
| CAATCTCTTGACTATTTCTGCTGTCCAAGTCCAACAACGCCGGAGTCACCTAGTGCAG | 3320 fluorescence intensity (a.u.) |
| TCTTGCAATGATGTGTGTGTGCATGTGTTTGTCTGTGCTACGGAGTCACCTAGTGCAG | 3780 fluorescence intensity (a.u.) |
| GGTGGTGAGACGTTGACGTGGTGGCTACGTATCAAAGGTGCGGAGTCACCTAGTGCAG | 9640 fluorescence intensity (a.u.) |

Reprinted at random: 3 records from the list

| Sequence | binding signal |
| --- | --- |
| GATAACCTTGTGACTTGTTTTGACGTGTGACGTTGGCGGACGGAGTCACCTAGTGCAG | 11200 fluorescence intensity (a.u.) |
| ACAGCAATGTCAGACATAAACTTATTCCATCTTGCACTTTCGGAGTCACCTAGTGCAG | 3410 fluorescence intensity (a.u.) |
| CGCCGTGACAATTCCCGCTGTATCATCCGTTGTTCGGATCCGGAGTCACCTAGTGCAG | 3200 fluorescence intensity (a.u.) |

Next entries follow.

| Sequence | binding signal |
| --- | --- |
| AATTTTCGTCCCTTGACCGCAAAACCGAGTATGACCCGTCCGGAGTCACCTAGTGCAG | 3240 fluorescence intensity (a.u.) |
| GTGAGGTCCACTAAGGTGTCATATGTCATGTAGTCACCTCCGGAGTCACCTAGTGCAG | 4820 fluorescence intensity (a.u.) |
| GAATGCATACAGAGAGAGGCACTAATTGACGCGGGATCTCCGGAGTCACCTAGTGCAG | 3610 fluorescence intensity (a.u.) |
| ATTTCTGGGCGTGACGCCGCCTCCCCTACATCATACAAACCGGAGTCACCTAGTGCAG | 4460 fluorescence intensity (a.u.) |
| AGAGCCAGCGAGACGCCGGCATAGCTTGTACACGGTGGCTCGGAGTCACCTAGTGCAG | 3800 fluorescence intensity (a.u.) |
| GCCGCCGCCCTCCCCTTCTCCCACGTCACCGGCGACCTCCCGGAGTCACCTAGTGCAG | 18500 fluorescence intensity (a.u.) |
| GCGAGAAACAACAGCGCCCACGCCGCCACGCCGCCAGGCTCGGAGTCACCTAGTGCAG | 3700 fluorescence intensity (a.u.) |
| CACACGATTGAGTGACCAGATTACTCATTACACGTTCAATCGGAGTCACCTAGTGCAG | 3590 fluorescence intensity (a.u.) |
| CCCTGTCTTCCACGTGATTCAGTGCCCCACGTCACTGATACGGAGTCACCTAGTGCAG | 12200 fluorescence intensity (a.u.) |
| TCACTGCATTACTCTCAGTACAGTCAGTACATATAGCCGTCGGAGTCACCTAGTGCAG | 4260 fluorescence intensity (a.u.) |
| GACATATTTTAAAATTCCGGTCGATATAATGACTTGTCGGCGGAGTCACCTAGTGCAG | 3210 fluorescence intensity (a.u.) |
| AGCGACGCACCACAATACGGACGCATTCATGACACGTACCCGGAGTCACCTAGTGCAG | 6280 fluorescence intensity (a.u.) |
| CTCTCTCTCTCTCTCTCTCTACGACTCCCACCTCCACCTCCGGAGTCACCTAGTGCAG | 3580 fluorescence intensity (a.u.) |
| GTCTGGATCAGAGCTGTCCACATTGGTTGTATTCCTCTTTCGGAGTCACCTAGTGCAG | 3620 fluorescence intensity (a.u.) |
| TTTGTATAGAAAGTTTTCGTACGAAAAGCGTGTTACTAGTCGGAGTCACCTAGTGCAG | 29900 fluorescence intensity (a.u.) |
| TCATTTATTGGATTGGGAAGCGGTTTCGTCCGACGTGGCACGGAGTCACCTAGTGCAG | 27900 fluorescence intensity (a.u.) |
| ACAAGCAAATTATTTAATGAGATTTTATCTAGCTCAATTTCGGAGTCACCTAGTGCAG | 24100 fluorescence intensity (a.u.) |
| ATTGATCTCCTTTGACTTTTGCCAGTATCTCCTCTTCCTTCGGAGTCACCTAGTGCAG | 30700 fluorescence intensity (a.u.) |
| CGATCGTGCTTGTCATCCTGACGTACAACCGCGTGTGCTACGGAGTCACCTAGTGCAG | 5070 fluorescence intensity (a.u.) |
| AGCTGCATATATTGATTGACAGGTGTACCGATTCCTTATGCGGAGTCACCTAGTGCAG | 5900 fluorescence intensity (a.u.) |
| CAGTTTCATATTTCACATCTAGATTAAGTATTAGTAGCAACGGAGTCACCTAGTGCAG | 3170 fluorescence intensity (a.u.) |
